Source: doi:10.1101/2021.01.08.425619
No constants are given. Whether binding was seen depends on the method and setting. In cells and extracts the contact can be indirect. These calls come from enrichment with a bait or labelling near it, and not all partners need be listed. For some of these results: No binding means not detected with the bait.

By UniProt entry, the sequences of proteins in these tests, tags left out. Where a name states a change or a piece, a line headed by the entry shows the natural chain unless it says otherwise.
UniProt Q24117: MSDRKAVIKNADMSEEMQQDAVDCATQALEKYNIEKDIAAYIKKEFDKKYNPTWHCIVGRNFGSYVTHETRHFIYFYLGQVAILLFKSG
UniProt Q32KD2: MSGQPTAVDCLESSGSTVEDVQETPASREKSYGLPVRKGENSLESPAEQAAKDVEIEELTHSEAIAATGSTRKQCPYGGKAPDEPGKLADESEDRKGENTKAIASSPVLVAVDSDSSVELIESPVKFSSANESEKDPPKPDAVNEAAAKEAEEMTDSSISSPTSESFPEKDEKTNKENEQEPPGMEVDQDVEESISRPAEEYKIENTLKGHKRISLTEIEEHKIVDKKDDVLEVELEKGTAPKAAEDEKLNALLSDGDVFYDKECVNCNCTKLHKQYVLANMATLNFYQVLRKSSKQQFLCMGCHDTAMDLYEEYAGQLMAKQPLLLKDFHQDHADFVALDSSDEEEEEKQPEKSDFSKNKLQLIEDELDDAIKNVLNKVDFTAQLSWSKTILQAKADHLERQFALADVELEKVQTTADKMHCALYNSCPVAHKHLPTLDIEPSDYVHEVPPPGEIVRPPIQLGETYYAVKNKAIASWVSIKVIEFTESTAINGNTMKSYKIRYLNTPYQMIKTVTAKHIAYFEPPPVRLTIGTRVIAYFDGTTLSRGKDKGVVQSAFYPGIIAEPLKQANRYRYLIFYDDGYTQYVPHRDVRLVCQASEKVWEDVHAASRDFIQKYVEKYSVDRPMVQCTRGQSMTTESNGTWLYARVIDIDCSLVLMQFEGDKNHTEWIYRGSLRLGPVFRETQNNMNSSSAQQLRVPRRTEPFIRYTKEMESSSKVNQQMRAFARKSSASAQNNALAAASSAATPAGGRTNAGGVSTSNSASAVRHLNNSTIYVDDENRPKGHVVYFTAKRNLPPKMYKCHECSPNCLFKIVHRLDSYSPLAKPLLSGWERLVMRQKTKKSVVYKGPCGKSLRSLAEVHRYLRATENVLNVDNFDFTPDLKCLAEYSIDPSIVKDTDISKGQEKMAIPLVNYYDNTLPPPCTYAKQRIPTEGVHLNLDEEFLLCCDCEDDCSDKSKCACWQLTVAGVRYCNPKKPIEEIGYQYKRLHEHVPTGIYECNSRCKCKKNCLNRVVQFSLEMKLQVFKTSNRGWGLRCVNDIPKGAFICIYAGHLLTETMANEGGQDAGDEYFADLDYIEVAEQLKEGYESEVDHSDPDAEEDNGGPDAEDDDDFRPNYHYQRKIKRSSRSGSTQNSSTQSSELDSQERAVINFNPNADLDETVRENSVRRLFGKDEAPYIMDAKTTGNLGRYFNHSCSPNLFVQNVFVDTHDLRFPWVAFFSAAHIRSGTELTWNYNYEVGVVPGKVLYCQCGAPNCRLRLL
UniProt P63168: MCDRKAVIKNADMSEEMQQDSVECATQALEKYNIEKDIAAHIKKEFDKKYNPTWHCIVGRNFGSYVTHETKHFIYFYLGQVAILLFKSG
UniProt Q5LJQ3: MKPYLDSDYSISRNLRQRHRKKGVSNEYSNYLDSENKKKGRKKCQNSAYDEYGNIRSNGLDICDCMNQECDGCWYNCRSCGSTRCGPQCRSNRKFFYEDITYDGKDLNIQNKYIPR
UniProt Q9VCU6: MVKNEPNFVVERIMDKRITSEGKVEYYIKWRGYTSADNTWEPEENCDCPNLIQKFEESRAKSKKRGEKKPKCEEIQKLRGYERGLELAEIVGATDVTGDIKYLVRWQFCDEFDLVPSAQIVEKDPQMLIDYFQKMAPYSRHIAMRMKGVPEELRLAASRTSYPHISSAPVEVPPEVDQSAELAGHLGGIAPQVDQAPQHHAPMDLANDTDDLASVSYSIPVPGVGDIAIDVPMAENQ
UniProt Q9VV73: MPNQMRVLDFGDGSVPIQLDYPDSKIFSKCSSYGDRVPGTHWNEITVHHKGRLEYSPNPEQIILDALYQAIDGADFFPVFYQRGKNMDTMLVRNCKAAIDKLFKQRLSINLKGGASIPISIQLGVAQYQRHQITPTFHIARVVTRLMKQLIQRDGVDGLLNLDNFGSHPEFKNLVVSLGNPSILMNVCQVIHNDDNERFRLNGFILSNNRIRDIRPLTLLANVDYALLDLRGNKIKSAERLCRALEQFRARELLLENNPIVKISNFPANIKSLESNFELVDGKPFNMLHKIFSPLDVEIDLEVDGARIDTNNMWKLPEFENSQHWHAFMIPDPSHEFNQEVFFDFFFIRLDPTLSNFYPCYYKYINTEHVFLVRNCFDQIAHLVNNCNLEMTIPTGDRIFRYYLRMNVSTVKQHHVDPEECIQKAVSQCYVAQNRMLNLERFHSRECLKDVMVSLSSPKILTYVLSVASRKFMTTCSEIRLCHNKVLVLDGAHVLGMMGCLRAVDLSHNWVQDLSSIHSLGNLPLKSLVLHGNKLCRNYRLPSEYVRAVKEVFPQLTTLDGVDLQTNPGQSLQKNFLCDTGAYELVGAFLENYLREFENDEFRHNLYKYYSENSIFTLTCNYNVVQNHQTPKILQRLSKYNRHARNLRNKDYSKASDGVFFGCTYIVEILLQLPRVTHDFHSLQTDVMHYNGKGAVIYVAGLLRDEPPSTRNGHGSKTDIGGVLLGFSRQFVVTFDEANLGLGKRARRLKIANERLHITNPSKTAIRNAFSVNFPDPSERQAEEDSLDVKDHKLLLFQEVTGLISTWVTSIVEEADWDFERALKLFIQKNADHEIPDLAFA
UniProt A0A0B4LF38: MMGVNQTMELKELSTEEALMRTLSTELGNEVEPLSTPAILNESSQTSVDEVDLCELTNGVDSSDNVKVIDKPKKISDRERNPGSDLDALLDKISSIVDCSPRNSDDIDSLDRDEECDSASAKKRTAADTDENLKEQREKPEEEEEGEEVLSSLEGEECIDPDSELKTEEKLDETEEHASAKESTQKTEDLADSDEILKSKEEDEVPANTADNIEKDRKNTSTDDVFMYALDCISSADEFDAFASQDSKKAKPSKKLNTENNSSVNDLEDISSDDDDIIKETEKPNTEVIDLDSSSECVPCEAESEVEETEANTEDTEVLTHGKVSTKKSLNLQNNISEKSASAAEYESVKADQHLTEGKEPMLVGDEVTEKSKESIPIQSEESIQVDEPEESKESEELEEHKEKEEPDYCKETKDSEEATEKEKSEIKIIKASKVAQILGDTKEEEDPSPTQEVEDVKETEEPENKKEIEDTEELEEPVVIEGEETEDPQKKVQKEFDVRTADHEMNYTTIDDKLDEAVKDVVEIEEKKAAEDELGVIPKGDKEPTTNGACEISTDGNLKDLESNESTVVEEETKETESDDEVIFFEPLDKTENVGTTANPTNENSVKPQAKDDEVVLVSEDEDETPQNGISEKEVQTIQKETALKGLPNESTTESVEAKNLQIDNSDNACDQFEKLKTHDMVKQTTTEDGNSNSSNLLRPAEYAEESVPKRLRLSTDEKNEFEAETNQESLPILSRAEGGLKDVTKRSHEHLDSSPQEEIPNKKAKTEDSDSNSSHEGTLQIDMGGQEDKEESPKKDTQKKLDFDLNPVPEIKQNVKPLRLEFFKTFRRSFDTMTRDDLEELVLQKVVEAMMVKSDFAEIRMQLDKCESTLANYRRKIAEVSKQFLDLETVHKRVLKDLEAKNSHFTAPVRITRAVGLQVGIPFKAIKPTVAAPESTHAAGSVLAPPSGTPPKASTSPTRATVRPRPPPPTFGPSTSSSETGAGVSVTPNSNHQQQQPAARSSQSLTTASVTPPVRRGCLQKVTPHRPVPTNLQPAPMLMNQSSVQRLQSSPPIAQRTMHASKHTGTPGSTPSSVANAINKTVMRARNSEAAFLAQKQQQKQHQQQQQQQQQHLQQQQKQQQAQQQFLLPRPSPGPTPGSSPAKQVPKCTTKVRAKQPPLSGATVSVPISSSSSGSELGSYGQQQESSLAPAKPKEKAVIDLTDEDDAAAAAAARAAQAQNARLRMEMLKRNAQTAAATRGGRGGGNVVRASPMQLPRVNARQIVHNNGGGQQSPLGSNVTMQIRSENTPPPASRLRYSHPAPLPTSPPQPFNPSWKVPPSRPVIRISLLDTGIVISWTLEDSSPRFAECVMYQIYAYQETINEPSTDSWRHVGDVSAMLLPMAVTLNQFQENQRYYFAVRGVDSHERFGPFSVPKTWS
UniProt A2A791: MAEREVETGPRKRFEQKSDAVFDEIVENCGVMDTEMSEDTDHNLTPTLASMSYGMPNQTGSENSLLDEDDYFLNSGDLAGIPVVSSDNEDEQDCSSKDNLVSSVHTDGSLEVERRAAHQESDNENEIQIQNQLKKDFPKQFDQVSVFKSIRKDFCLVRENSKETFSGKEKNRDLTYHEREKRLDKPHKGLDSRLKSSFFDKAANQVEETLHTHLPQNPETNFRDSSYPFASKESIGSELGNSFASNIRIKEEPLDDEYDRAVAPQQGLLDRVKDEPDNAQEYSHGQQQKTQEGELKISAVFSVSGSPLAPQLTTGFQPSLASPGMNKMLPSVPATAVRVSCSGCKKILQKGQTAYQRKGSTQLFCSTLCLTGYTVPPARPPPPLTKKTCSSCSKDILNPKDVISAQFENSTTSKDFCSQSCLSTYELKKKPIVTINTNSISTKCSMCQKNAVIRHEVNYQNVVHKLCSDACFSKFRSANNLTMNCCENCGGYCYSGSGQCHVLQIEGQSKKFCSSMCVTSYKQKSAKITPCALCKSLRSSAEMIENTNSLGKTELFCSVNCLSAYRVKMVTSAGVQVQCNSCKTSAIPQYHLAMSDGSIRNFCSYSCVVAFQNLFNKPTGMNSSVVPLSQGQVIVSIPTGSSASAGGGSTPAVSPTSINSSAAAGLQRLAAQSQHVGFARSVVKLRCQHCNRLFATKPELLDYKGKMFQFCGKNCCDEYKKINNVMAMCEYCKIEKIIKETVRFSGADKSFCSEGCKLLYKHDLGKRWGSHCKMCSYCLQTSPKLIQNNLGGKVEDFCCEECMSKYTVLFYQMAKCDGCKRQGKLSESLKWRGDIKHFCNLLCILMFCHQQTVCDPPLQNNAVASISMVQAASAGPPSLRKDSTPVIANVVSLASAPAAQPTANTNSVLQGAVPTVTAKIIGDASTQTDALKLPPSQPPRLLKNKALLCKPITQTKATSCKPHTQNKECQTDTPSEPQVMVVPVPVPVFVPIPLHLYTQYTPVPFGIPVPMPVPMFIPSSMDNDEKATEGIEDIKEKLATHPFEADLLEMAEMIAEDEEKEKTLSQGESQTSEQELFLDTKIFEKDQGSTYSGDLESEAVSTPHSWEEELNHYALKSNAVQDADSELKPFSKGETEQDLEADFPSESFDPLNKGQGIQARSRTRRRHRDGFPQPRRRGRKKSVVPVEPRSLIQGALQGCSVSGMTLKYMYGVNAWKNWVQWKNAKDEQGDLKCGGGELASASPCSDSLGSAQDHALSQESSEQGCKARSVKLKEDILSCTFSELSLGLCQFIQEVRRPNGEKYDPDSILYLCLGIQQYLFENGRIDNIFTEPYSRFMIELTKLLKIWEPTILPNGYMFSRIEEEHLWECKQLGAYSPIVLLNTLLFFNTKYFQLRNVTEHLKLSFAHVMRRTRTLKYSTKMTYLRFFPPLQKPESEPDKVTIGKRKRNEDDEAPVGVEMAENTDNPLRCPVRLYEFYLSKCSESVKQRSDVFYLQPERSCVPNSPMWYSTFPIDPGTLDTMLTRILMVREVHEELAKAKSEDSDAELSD

Assays:
Assay in all cases: affinity purification with mass spectrometry
[1] = target: FLAG-GFP tagged LC8 (Drosophila) (UniProt Q24117)
[2] = target: FLAG-GFP tagged Eggless (Drosophila (endogenous locus in OSCs)) (UniProt Q32KD2)
[3] = target: Mouse LC8/Dynll1, endogenously tagged (mouse) (UniProt P63168)

binding [1] | Substance | other results
binds | CG14464/ARLE-14 (from UniProt Q5LJQ3) | 
 | Cutup, the 8 kDa Dynein Light Chain 8 (LC8) ortholog of Drosophila, endogenous (from UniProt Q24117 1-89) | binding [2]: binds
binds | HP1c (from UniProt Q9VCU6) | 
 | Nxf2, endogenous (from UniProt Q9VV73 1-841) | binding [2]: no binding
binds | Robl (from UniProt A1ZAT3) | 
binds | Windei/ATF7IP (from UniProt A0A0B4LF38) | 
 | Zmym4 (from UniProt A2A791 1-1549) | binding [3]: binds
